Source: PMC12040169 (PLOS Biology, 2025)
Some of the results follow.

system: T1, CTL2-GFP (C. trachomatis L2/434/Bu, GFP-expressing); design: species or system HeLa; Intracellular C. trachomatis growth in HeLa cells, bulk GFP fluorescence relative to DMSO; details: bulk GFP, single well; 28.5 h, 10 µM; inhibitor
T1 construct: L2/434/Bu, GFP-expressing

| SMILES | % of control remaining |
| --- | --- |
| CC(C)(C)c1ccc(-c2nc3ncccc3cc2O)cc1 [CBK073703] | 125.537% |
| Cc1ccc(CNc2oc(COc3ccc(Br)cc3)nc2C#N)cc1 [CBK074467] | 109.396% |
| COc1cc(Nc2cccc(-c3ccsc3)n2)cc(OC)c1OC [CBK036987] | 110.204% |
| Fc1ccc(Oc2nccnc2N2CCN(Cc3ccccc3F)CC2)cc1 [CBK083009T] | 101.143% |
| Cc1cc(C)c(C)c(S(=O)(=O)Nc2ccc(C(=O)NCc3ccccn3)cc2)c1C [CBK267275] | 154.812% |
| O=S(=O)(CCN1CCN(C(c2ccccc2)c2ccccc2)CC1)c1ccc(Cl)cc1 [CBK074810] | 104.919% |
| Cn1nc(-c2ccc(F)cc2)cc1C(=O)NCCn1ccnc1 [CBK281576] | 129.379% |
| O=C(c1csc2c1CCCC2)N1CCc2c(nc[nH]c2=O)C1 [CBK283717] | 150.182% |
| CC1CCN(S(=O)(=O)c2ccc(C(=O)O)cc2)CC1 [CBK287195] | 133.697% |
| c1cncc(COc2nccnc2OC2CCN(Cc3cccnc3)CC2)c1 [CBK083158] | 117.506% |
| Cc1ccc(C(=O)n2nc(-c3cccnc3)nc2N)cc1 [CBK288172] | 117.487% |
| Cn1c(=O)c2c(nc(CN3CCOCC3)n2Cc2c(F)cccc2Cl)n(C)c1=O [CBK269224] | 125.677% |
| N#CCn1nnc(-c2ccc3c(c2)OCO3)n1 [CBK062663] | 124.113% |
| COc1ccc(-c2ccccc2NS(=O)(=O)c2ccc3c(c2)CCC(=O)N3)cc1 [CBK286370] | 107.535% |
| O=C(CSc1nc2ccccc2[nH]1)Nc1cccc(C(=O)O)c1 [CBK263225] | 88.2245% |
| COC(=O)[C@H]1CCc2ccccc2N1C(=O)c1ccco1 [CBK284259] | 141.995% |
| Cc1ccc(C2(c3ccc(C)cc3)CC2C(=O)Nc2ccccc2[N+](=O)[O-])cc1 (stereo not shown) [CBK263591] | 123.354% |
| O=C(NCc1ccccc1)[C@@H]1Cc2[nH]cnc2CN1C(=O)C1CCCCC1 [CBK288972] | 107.299% |
| O=C(NCCc1ccc(O)cc1)c1ccc(-c2ccc(OC(F)(F)F)cc2)nc1 [CBK156224] | 82.5944% |
| CCN1CCC2(CC1)Nc1cc(Cl)c(S(N)(=O)=O)cc1S(=O)(=O)N2 [CBK010418C] | 129.618% |
| CCC(C)CS(=O)(=O)c1nc(C)c(C)n1CC1CCCO1 (stereo not shown) [CBK305107] | 59.9998% |
| CCOC(=O)CCCNC(=O)N1CCCC(CO)C1 (stereo not shown) [CBK156344] | 114.834% |
| Cc1nc(-c2nnc(NC(=O)COc3ccc(Cl)cc3Cl)o2)cs1 [CBK287843] | 109.918% |
| CC(C)(O)C1CCCN(C(=O)c2cc(COc3cccc(F)c3)[nH]n2)C1 (stereo not shown) [CBK306653] | 121.123% |
| Cc1noc(C)c1S(=O)(=O)n1c(=O)n(Cc2ccc(S(C)(=O)=O)cc2)c2ccccc21 [CBK106536] | 119.885% |
| COCC(=O)NC(Cc1cccs1)c1nc(C)cs1 (stereo not shown) [CBK285004] | 112.516% |
| COc1ccccc1-c1nccnc1N[C@H](C)c1ccccc1 [CBK038083] | 129.034% |

| SMILES | % of control remaining |
| --- | --- |
| CC(=O)NCC(=O)N1CCCC2(C/C=C/COc3ccccc3C(=O)NCCNC2=O)C1 (stereo not shown) [CBK291991] | 134.626% |
| O=C(CSc1nnc(-c2ccncc2)n1-c1ccccc1)N/N=C/c1c[nH]c2ccc(Br)cc12 [CBK262816] | 100% |
| Cc1cc(NC(=O)CN(C)C(=O)c2cnc(Cl)c(Cl)c2)no1 [CBK306132] | 101.329% |
| NS(=O)(=O)c1ccc(CCNC(=O)C2CC2)cc1 [CBK288407] | 84.4774% |
| Cc1nn(CC(=O)N2CCCCC2C)c(=O)c2cc3sccc3n12 (stereo not shown) [CBK284141] | 123.941% |
| Cc1ccc(OCC(=O)N2CCN(C(=O)c3ccncc3)CC2)cc1 [CBK300480] | 122.546% |
| CC(C)N1CCC(C(=O)NC(=O)Nc2ccc3c(c2)OCCO3)CC1 [CBK034799] | 116.472% |
| CC(C)CNC(=S)N[C@H]1CC[C@@]2(c3cccnc3)CCN(Cc3ccccc3)[C@H]2C1 [CBK028460] | 121.884% |
| CC(=O)NCCSc1nc2ccccc2nc1N1CCCC1 [CBK103696] | 113.331% |
| O=S(=O)(CC(F)(F)F)Nc1ccc(-c2nnn[nH]2)cc1 [CBK154754] | 95.1806% |
| COc1cc(C(=O)N(Cc2ccco2)c2ccc(O)cc2)cc(OC)c1OC [CBK266315] | 95.1268% |
| CC(C)(C)OC(=O)N1CCN(c2cncc(OC3CSCc4ccccc43)n2)CC1 (stereo not shown) [CBK172354] | 128.404% |
| O=C(Nc1cccc(C(=O)O)c1)/C(=C\c1ccc2c(c1)OCO2)NC(=O)c1ccccc1 [CBK263697] | 113.949% |
| CCN1C(=O)S/C(=C/c2ccc(OCc3cccc(C(=O)O)c3)cc2)C1=O [CBK265605] | 115.714% |
| c1ccc(NCc2ncnc3c2ncn3C2CCCCO2)cc1 (stereo not shown) [CBK021593] | 66.276% |
| CCC1CCCCN1Cc1nc2c(c(=O)n(C)c(=O)n2C)n1CCOC (stereo not shown) [CBK305912] | 138.985% |
| COc1ccc(NC(=O)Nc2ccc3nc(C)c(C)nc3c2)cc1 [CBK265120] | 153.073% |
| CCCCN(Cc1ccc(C)s1)C(=O)C1CCc2nn(C)c(=O)n2C1 (stereo not shown) [CBK307360] | 118.337% |
| CCn1cncc1CN(CCCn1ccnc1)CC1CC=CCC1 (stereo not shown) [CBK283220] | 126.471% |
| CCC1(CC)OC(N[C@@H](C)c2ccc3ccccc3c2)=NC1=O [CBK123982] | 107.213% |
| Cc1cc(C)cc(C(=O)N(CCc2ccccc2)C2CC3CCC(C2)N3C)c1 (stereo not shown) [CBK262612C] | 100% |
| Cc1oc2ccc(O)cc2c1C(=O)NCCCN1CC(C)CC(C)C1 (stereo not shown) [CBK282161] | 126.408% |
| O=C(O)/C(=N\O)c1ccc(CCc2ccccc2)s1 [CBK261213] | 100% |
| Cc1nnc([C@H]2CCN(Cc3ccccc3)C2)o1 [CBK289390] | 110.743% |
| O=C(CCCc1ccccc1)Nc1ccc(O)cc1C(=O)O [CBK131699] | 129.768% |
| O=C(NCc1ccc(N2CCCC2=O)cc1)c1cc(Br)ccc1O [CBK296614] | 127.666% |
| CC12CCC(CC1C(=O)NC1CC1)[C@]1(C2)NC(=O)c2ccccc2N1 (stereo partly shown) [CBK284445] | 141.36% |

7 entries from above, sorted by count of non-hydrogen atoms, ascending.

| SMILES | % of control remaining |
| --- | --- |
| NS(=O)(=O)c1ccc(CCNC(=O)C2CC2)cc1 [CBK288407] | 84.4774% |
| O=S(=O)(CC(F)(F)F)Nc1ccc(-c2nnn[nH]2)cc1 [CBK154754] | 95.1806% |
| CC(=O)NCCSc1nc2ccccc2nc1N1CCCC1 [CBK103696] | 113.331% |
| Cc1oc2ccc(O)cc2c1C(=O)NCCCN1CC(C)CC(C)C1 (stereo not shown) [CBK282161] | 126.408% |
| CCC1CCCCN1Cc1nc2c(c(=O)n(C)c(=O)n2C)n1CCOC (stereo not shown) [CBK305912] | 138.985% |
| Cc1cc(C)cc(C(=O)N(CCc2ccccc2)C2CC3CCC(C2)N3C)c1 (stereo not shown) [CBK262612C] | 100% |
| O=C(Nc1cccc(C(=O)O)c1)/C(=C\c1ccc2c(c1)OCO2)NC(=O)c1ccccc1 [CBK263697] | 113.949% |

Following part

| SMILES | % of control remaining |
| --- | --- |
| CC1=Nc2c(cnn2-c2ccccc2)C2=NCCCN12 [CBK287928] | 145.101% |
| Cn1c(=O)n(CC(=O)NCc2cccc(F)c2)c2cccnc21 [CBK283911] | 156.909% |
| CC(=O)Nc1ccc(CCOc2nccnc2-c2ccc(C)cc2C)cc1 [CBK106985] | 82.5639% |
| O=C(c1ccoc1)N1CCC2(CCCN(Cc3ccc(OC(F)(F)F)cc3)C2)C1 (stereo not shown) [CBK132801] | 111.269% |
| COc1ccc(C(=O)Nc2ccccc2C(=O)NCCCC(=O)O)cc1 [CBK287024] | 123.517% |
| COc1ccc(-c2nc(NC(=O)Cc3ccccc3OC)cnc2-c2cccc(C)c2)cn1 [CBK036839] | 113.276% |
| Cn1c(=O)c(-c2nc3ccccc3[nH]2)c(O)c2ccccc21 [CBK027678] | 140.555% |
| Cc1ccc(S(=O)(=O)NC(Cc2ccccc2)C(=O)O)cc1 (stereo not shown) [CBK217645] | 122.498% |
| O=C(N/N=C/c1c(O)ccc2ccccc12)c1ccc(CO)nc1 [CBK261375] | 49.168% |
| Nc1ccc(-c2cc(F)cc(F)c2)c2ccccc12 [CBK084314] | 104.156% |
| CC(=O)NC1(c2ccc(F)cc2)CCN(CC(=O)NCC2CC2)CC1 [CBK283614] | 159.698% |
| NS(=O)(=O)c1cc(C(=O)O)ccc1F [CBK113180] | 117.327% |
| COc1ncc(-c2cnc3[nH]c(=O)n(Cc4ccc(S(C)(=O)=O)cc4)c3n2)cn1 [CBK065053] | 112.079% |
| CC(NC(=O)C1(Cn2ccnc2)CC1)c1ccccc1-n1cccn1 (stereo not shown) [CBK307006] | 94.096% |
| CC(C)(C)c1ccc(CNC(=O)C2CCCN2S(=O)(=O)c2ccc3ccccc3c2)cc1 (stereo not shown) [CBK265020] | 97.7786% |
| COc1ccc(OC)c(C(O)c2coc3ccc(O)c(CN(C)C)c23)c1 (stereo not shown) [CBK261314] | 83.5631% |
| CCN1CCN(c2ccc(C(=O)OC)cc2NC(=O)c2ccccc2Cl)CC1 [CBK270267] | 144.948% |
| Clc1cccc(CNc2cncc(-c3cccnc3)n2)c1 [CBK065283] | 67.5366% |
| CN(C)CCNc1ccc(-c2n[nH]c(=O)c3ccccc23)cc1[N+](=O)[O-] [CBK266143] | 123.196% |
| COc1ccccc1N1CCN(CCCCNC(=O)c2ccc(Cl)cc2)CC1 [CBK074835] | 99.9387% |
| CC(C)(C)OC(=O)N1CCN(Cc2nc(-c3ccccc3)no2)CC1 [CBK306465] | 96.6175% |
| O=C(OCc1ccc(Sc2ccc([N+](=O)[O-])cc2Cl)cc1)c1cnccn1 [CBK268037] | 137.813% |
| O=C1NC2(CCCCC2)C(=O)N1c1cccc(Cl)c1 [CBK287969] | 133.903% |
| Cc1cc(C)n(-c2nc3c(c(=O)[nH]c(=O)n3C)n2CCc2ccccc2)n1 [CBK087129] | 106.708% |
| O=C(c1nn2c(C(F)(F)F)cc(-c3ccccc3)nc2c1Br)N1CCCCC1 [CBK051497] | 107.076% |
